The other results are listed elsewhere or left out. Shown are side measurements of this screen, not its main read-out; they come without a call. Most of these compounds were active or inconclusive in the main read-out, so they are no random draw. Words in brackets tell the shape of the fitted curve; partial curves, single points and poor fits give uncertain potencies.
Experiment: qHTS Assay for Lipid Storage Modulators in Drosophila S3 Cells;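 on cell number change: cells counted by Cell Tracker Red CMTPX staining in the red channel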
Settings: BODIPY lipid droplet fluorescence, 18-24 h; for cell number change: measured here: cell count max response, cells fed with added oleic acid
In short: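 Laser-scanning cytometry quantifies lipid droplet accumulation (500–530 nm total intensity; droplet/cell object ratio) in oleic acid-fed (400 uM added) Drosophila S3 cells treated with a concentration series. 20 uM Triacsin C defined 100% inhibition.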

[1] = measured here: cell number channel AC50, cells fed with added oleic acid
[2] = measured here: lipid fluorescence (Fed channel) AC50, cells fed with added oleic acid

| SMILES | AC50 [1] | AC50 [2] | cell number change [%] |
| --- | --- | --- | --- |
| CCOC(=O)c1c(C)sc2c1N(C(=O)CN(CC)CC)c1cc(Cl)ccc1S2 | 3.26 µM [rising, single point] | 0.58 µM [rising, single point] | – |
| Cc1cccc(C)c1NC(=O)C(c1ccccc1)N1CCN(C(=O)c2ccco2)CC1 (centres undefined) | 1.16 µM [rising, full curve, poor fit] | – | – |
| Cc1oc2ccc(OCc3ccccc3Cl)cc2c1C(=O)O | 11.6 µM [rising, partial curve] | 29.1 µM [rising, single point] | 91.9 |
| O=C(Nc1cccc2ncccc12)c1ccco1 | – | 29.1 µM [rising, single point] | -1.67 |
| O=C1CC(N2CCN(S(=O)(=O)c3cccc(C(F)(F)F)c3)CC2)C(=O)N1Cc1ccccc1 (centres undefined) | 29.1 µM [falling, single point] | – | -37.3 |
| Cc1cccc2sc(NC(=O)[C@H](C)N3C(=O)C4CC=CCC4C3=O)nc12 (some centres undefined) | 6.51 µM [falling, full curve] | 6.51 µM [falling, single point] | -55.3 |
| CCOC(=O)c1ccc(NC(=O)CCOc2ccc(OC)cc2)cc1 | 6.51 µM [falling, single point] | – | – |
| O=C(CNC(=O)c1ccc(Br)cc1)NCCc1nc2ccccc2[nH]1 | – | – | 23.3 |
| O=C(c1c(Cl)nc2sccn12)N(C(=O)c1c(Cl)nc2sccn12)c1ccc(Cl)cn1 | – | – | -1.55 |
| Cc1cc(Cl)n2c(nc3ccccc32)c1C#N | 29.1 µM [falling, single point] | 29.1 µM [falling, partial curve] | -128 |
| Cc1[nH]c2ccccc2c1NC(=O)CN1CCN(Cc2ccc3c(c2)OCO3)CC1 | 5.17 µM [rising, partial curve] | – | 41.5 |
| COc1ccc(CC(NC(C)=O)C(=O)N2CCN(C(=O)Nc3ccc(Cl)cc3)CC2)cc1OC (centres undefined) | – | 7.31 µM [rising, partial curve] | 15.7 |
| N#Cc1c(NC(=O)CSc2nnc(-c3ccccc3O)n2-c2ccccc2)sc2c1CCCC2 | – | – | 14.4 |
| COCCCN1C(=O)C2C(C(=O)Nc3cc(C)cc(C)c3)C3C=CC2(O3)C1C(=O)NC1CCCCC1 (centres undefined) | – | 25.9 µM [falling, single point] | -4.03 |
| O=C(c1ccc(Br)o1)N1CCN(CCc2ccncc2)CC1 | – | – | -14.8 |
| O=Nc1c(O)n(Cc2ccc(Cl)c(Cl)c2)c2ccccc12 | 11.6 µM [falling, partial curve, poor fit] | – | -53 |
| COc1ccc(CCNC(=O)c2ccccc2OCc2c(C)noc2C)cc1 | – | 0.651 µM [rising, partial curve] | 28.7 |
| COc1ccc(CCNC(=O)c2c(C)nn(-c3ccccc3)c2Cl)cc1 | 20.6 µM [rising, single point] | 18.4 µM [rising, single point] | 43 |
| Cc1ccccc1NC(=O)C1Cc2ccccc2CN1C(=O)OCc1ccccc1 (centres undefined) | – | 7.31 µM [rising, partial curve] | 21.6 |
| CC(=O)NC(NC(=S)Nc1c(C)n(C)n(-c2ccccc2)c1=O)C(Cl)(Cl)Cl (centres undefined) | – | 5.17 µM [falling, full curve] | -47.5 |
| CN1/C(=C\C=[N+](C)c2ccccc2)C(C)(C)c2ccccc21 | – | – | -20.7 |

| SMILES | AC50 [1] | AC50 [2] | cell number change [%] |
| --- | --- | --- | --- |
| Fc1ccccc1COc1cccc(/C=N/n2cnnc2)c1 | – | – | -13.4 |
| CCOC(=O)N1CCN(c2ncnc3c2oc2nc(C)c4c(c23)CC(C)(C)OC4)CC1 | – | 2.31 µM [rising, single point] | 13.9 |
| CCOC(=O)C(=O)c1c(-c2ccccc2)nc2ccccn12 | – | 6.51 µM [falling, single point] | 21.3 |
| CCOc1ccc(CNC(=O)C2Cc3cc(S(=O)(=O)N4CCCC4)ccc3N2C(C)=O)cc1 (centres undefined) | – | 29.1 µM [rising, single point] | 14.2 |
| COc1ccc(C(C)=O)cc1COc1cc(C)c(Cl)c(C)c1 | – | 2.59 µM [rising, full curve, poor fit] | 15.5 |
| COC(=O)c1cnn2c(C(F)(F)F)cc(-c3ccco3)nc12 | 3.66 µM [rising, partial curve, poor fit] | – | – |
| CC12CCC(C(=O)NCc3ccccn3)(OC1=O)C2(C)C (centres undefined) | – | 18.4 µM [rising, single point] | – |
| O=C(CN1CCN(C(=O)N2CCOCC2)CC1)Nc1cc(Cl)ccc1Cl | – | 6.51 µM [falling, single point] | 18.5 |
| Cc1ccc(C(C)C)c(OC/C(O)=C(\C#N)c2nc3ccccc3[nH]2)c1 | 0.00461 µM [rising, full curve, poor fit] | 29.1 µM [rising, partial curve, poor fit] | 31.9 |
| COc1ccc(OC)c(N(CC(=O)NC2CCCCCC2)S(=O)(=O)c2ccc(C)cc2)c1 | – | 16.4 µM [falling, single point] | -7.62 |
| COc1ccc(/C=C/C(=O)OCC(=O)c2ccc(S(=O)(=O)N3CCCCC3)cc2)cc1OC | 4.61 µM [falling, single point] | – | – |
| CC1Cc2ccccc2N1CC(=O)N(C)c1c(N)n(Cc2ccccc2)c(=O)[nH]c1=O (centres undefined) | 1.64 µM [rising, full curve, poor fit] | – | 8.46 |
| N#Cc1c(SCC(=O)O)nc(N2CCCCC2)c2c1CCCC2 | 2.31 µM [rising, single point] | – | – |
| Cc1cc(C(=O)N/N=C/c2cccc(Cl)c2Cl)no1 | – | 2.06 µM [rising, partial curve] | 27.6 |
| O=C(NC1CCCCC1)C(c1ccccc1)N(Cc1ccco1)C(=O)c1csnn1 (centres undefined) | – | 6.51 µM [falling, single point] | 6.31 |
| CC(=O)Nc1ccc(S(=O)(=O)NC2=C(N3CCN(C)CC3)C(=O)c3ccccc3C2=O)cc1 | – | 29.1 µM [rising, single point] | -6.11 |
| Cc1onc(-c2ccccc2Cl)c1C(=O)N(C)C1CCCCC1 | 20.6 µM [falling, single point] | 20.6 µM [falling, single point] | -53 |
| O=C(c1cc(-c2ccccc2)on1)N1CCN(Cc2ccc3c(c2)OCO3)CC1 | 13 µM [rising, partial curve, poor fit] | – | 52.9 |
| Cc1ccc(S(=O)(=O)c2cc3c(=O)n4ccccc4nc3n(CCCN3CCOCC3)c2=N)cc1C | – | – | 1.83 |
| COc1cccc(NC(=O)C2CC(=O)OC23CCOC(C)(C)C3)c1 (centres undefined) | 0.731 µM [falling, single point] | – | 10.6 |
| COc1ccc(-n2c(O)c(/C=N/Nc3nc(C)cc(C)n3)c3ccccc3c2=O)cc1OC | – | – | -11.6 |

| SMILES | AC50 [1] | AC50 [2] | cell number change [%] |
| --- | --- | --- | --- |
| CCOc1ccc(CC(C(N)=O)C(N)=O)cc1 | – | 3.66 µM [falling, single point] | -0.733 |
| CCOC(=O)c1nnc(-c2ccc(C)cc2)nc1Oc1ccccc1Cl | – | 2.06 µM [falling, partial curve] | – |
| COc1ccccc1C(CNC(=O)c1ccc(NS(=O)(=O)c2ccc(F)c(C)c2)cc1)N1CCCC1 (centres undefined) | 13 µM [rising, partial curve, poor fit] | – | 41.2 |
| CCOC(=O)c1c(-c2ccc(OC)cc2)csc1NC(=O)CCN1CCOCC1 | – | – | -57.9 |
| COc1cccc(CC(NC(C)=O)C(=O)NC2CCN(C(=O)c3ccc(Cl)cc3)CC2)c1OC (centres undefined) | – | – | -15.4 |
| CCOc1cc(S(=O)(=O)N2CCC(C(N)=O)CC2)ccc1F | – | 1.03 µM [falling, full curve, poor fit] | -8.49 |
| C[C@H](NC(=O)c1ccco1)C(=O)N1CCCC1 | – | – | 17.1 |
| O=C(NC1CCCC1)C1CCN(C(=O)c2ccc(Cl)cc2)CC1 | – | 29.1 µM [falling, single point] | 20.4 |
| Cc1ccc(NC(=O)CN(C)C(=O)c2ccc(Br)o2)cc1 | – | – | 29.8 |
| Cc1oc2c(CN3CCCC(C)C3)c(O)ccc2c(=O)c1-c1ccccc1 (centres undefined) | – | 29.1 µM [rising, single point] | – |
| CC(=Nc1ccccc1O)c1sc2ccccc2c1O | – | 18.4 µM [falling, single point] | – |
| O=c1[nH]c(NCCO)nc2c1C1(CCCCC1)Cc1ccccc1-2 | 29.1 µM [falling, single point] | 5.17 µM [falling, partial curve, poor fit] | -64.1 |
| CCOC(=O)N1CCN(C(=O)c2cc(COc3cccc(C(F)(F)F)c3)on2)CC1 | 7.31 µM [rising, partial curve, poor fit] | – | 25.6 |
| Cc1nnc(NC(=O)/C=C/c2ccco2)s1 | – | 20.6 µM [falling, single point] | 7.43 |
| NC1=NC(c2ccccc2)N=C(Nc2ccccc2)N1 (centres undefined) | 0.092 µM [rising, full curve] | 6.51 µM [falling, single point] | 26.5 |
| Fc1cccc(Cl)c1CSC1=NCCS1 | – | 29.1 µM [rising, partial curve] | 14.3 |
| CCOC(=O)CSc1nnc(Cc2ccc(OC)cc2)n1-c1ccccc1 | 9.2 µM [rising, partial curve, poor fit] | – | 33.3 |
| Cc1ccc(C)c(C(=O)c2ccccc2NC(=O)c2ccccn2)c1 | – | 14.6 µM [rising, partial curve] | 8.4 |
| COCCn1c(=O)[nH]c(=O)c2cc(C(=O)c3cc(Cl)ccc3O)cnc21 | 0.103 µM [rising, full curve, poor fit] | 0.146 µM [rising, full curve, poor fit] | – |

4 entries picked at random from the list so far, as already listed:

| SMILES | AC50 [1] | AC50 [2] | cell number change [%] |
| --- | --- | --- | --- |
| COc1ccccc1C(CNC(=O)c1ccc(NS(=O)(=O)c2ccc(F)c(C)c2)cc1)N1CCCC1 (centres undefined) | 13 µM [rising, partial curve, poor fit] | – | 41.2 |
| Fc1cccc(Cl)c1CSC1=NCCS1 | – | 29.1 µM [rising, partial curve] | 14.3 |
| NC1=NC(c2ccccc2)N=C(Nc2ccccc2)N1 (centres undefined) | 0.092 µM [rising, full curve] | 6.51 µM [falling, single point] | 26.5 |
| Cc1nnc(NC(=O)/C=C/c2ccco2)s1 | – | 20.6 µM [falling, single point] | 7.43 |
